Measurements reported in the supplement of paper PMC9433722.
Where a name gives a salt, the structure may show the parent alone. Some of the results follow. Repeats are few or missing, and single values can be far off.

Assays:
Saos-2 = assay: cell viability (CCK-8) relative to DMSO control (% of control); higher = less cytotoxic; settings: 10 µM; 48 h
U2OS = assay: as above; settings: 10 µM; 48 h

Cn1c(=O)c2[nH]cnc2n(C)c1=O [Aminophylline]
cell viability (Saos-2): 63.2
cell viability (U2OS): 104

CCC[C@H](N[C@@H](C)C(=O)N1[C@H](C(=O)O)C[C@@H]2CCCC[C@@H]21)C(=O)OCC [Perindopril Erbumine]
cell viability (Saos-2): 95.3
cell viability (U2OS): 101

C[C@@H](NCCCc1cccc(C(F)(F)F)c1)c1cccc2ccccc12 [Cinacalcet·HCl]
cell viability (Saos-2): 69.2
cell viability (U2OS): 86.2

CO/N=C(\C(=O)N[C@@H]1C(=O)N2C(C(=O)OC(C)OC(C)=O)=C(COC(N)=O)CS[C@H]12)c1ccco1 (some centres not stated) [Cefuroxime Axetil]
cell viability (Saos-2): 97.8
cell viability (U2OS): 74.6

O=C(O)C(=O)O.[NH-][C@@H]1CCCC[C@H]1[NH-].[Pt+2] [Oxaliplatin]
cell viability (Saos-2): 53.1
cell viability (U2OS): 71.8

CN1CCC[C@H]1c1cccnc1 [Nicotine]
cell viability (Saos-2): 109
cell viability (U2OS): 101

Cc1ccccc1C(OCCN(C)C)c1ccccc1 (configuration not stated) [Orphenadrine citrate]
cell viability (Saos-2): 69.1
cell viability (U2OS): 101

NC(N)=Nc1nc(CSCC/C(N)=N/S(N)(=O)=O)cs1 [Famotidine]
cell viability (Saos-2): 66
cell viability (U2OS): 95.1

CC(=O)O[C@@]12CO[C@@H]1C[C@H](O)[C@@]1(C)C(=O)[C@H](O)C3=C(C)[C@@H](OC(=O)[C@H](O)[C@@H](NC(=O)OC(C)(C)C)c4ccccc4)C[C@@](O)([C@@H](OC(=O)c4ccccc4)[C@H]21)C3(C)C [Docetaxel]
cell viability (Saos-2): 29.3
cell viability (U2OS): 62.2

CC[C@H]1OC(=O)[C@H](C)[C@@H](O[C@H]2C[C@@](C)(OC)[C@@H](O)[C@H](C)O2)[C@H](C)[C@@H](O[C@@H]2O[C@H](C)C[C@H](N(C)C)[C@H]2O)[C@](C)(O)C[C@@H](C)C(=O)[C@H](C)[C@@H](O)[C@]1(C)O [Erythromycin]
cell viability (Saos-2): 103
cell viability (U2OS): 80.8

Nc1cc(-c2ccncc2)c[nH]c1=O [Amrinone]
cell viability (Saos-2): 66.7
cell viability (U2OS): 97.4

CC(C)[C@H](N)C(=O)OCCOCn1cnc2c(=O)nc(N)[nH]c21 [Valacyclovir·HCl]
cell viability (Saos-2): 61.2
cell viability (U2OS): 103

O=C(NCC1CCCCN1)c1cc(OCC(F)(F)F)ccc1OCC(F)(F)F (configuration not stated) [Flecainide Acetate]
cell viability (Saos-2): 62.1
cell viability (U2OS): 105

CC(=O)Oc1ccccc1C(=O)O [Aspirin (Acetylsalicylic Acid)]
cell viability (Saos-2): 65.6
cell viability (U2OS): 97.7

Cc1cccc(C)c1OCC(=O)N[C@@H](Cc1ccccc1)[C@@H](O)C[C@H](Cc1ccccc1)NC(=O)[C@H](C(C)C)N1CCCNC1=O [Lopinavir]
cell viability (Saos-2): 112
cell viability (U2OS): 110

NCC(=O)CCC(=O)O [Aminolevulinic Acid·HCl]
cell viability (Saos-2): 122
cell viability (U2OS): 86.5

C[C@]12CC[C@@H]3c4ccc(OS(=O)(=O)O)cc4CC[C@H]3[C@@H]1CCC2=O [Estropipate]
cell viability (Saos-2): 100
cell viability (U2OS): 79.9

COc1ccc2[nH]c([S@@+]([O-])Cc3ncc(C)c(OC)c3C)nc2c1 [Esomeprazole Potassium]
cell viability (Saos-2): 74.1
cell viability (U2OS): 107

Nc1ccc(C(=O)O)c(O)c1 [4-Aminosalicylic Acid]
cell viability (Saos-2): 65.1
cell viability (U2OS): 110

C[N+](C)(C)C[C@H](O)CC(=O)[O-] [Levocarnitine]
cell viability (Saos-2): 112
cell viability (U2OS): 94.6

Cc1ccc(N(CC2=NCCN2)c2cccc(O)c2)cc1 [Phentolamine Hydrochloride]
cell viability (Saos-2): 62.1
cell viability (U2OS): 112

CN(C)CCCN1c2ccccc2CCc2ccc(Cl)cc21 [Clomipramine·HCl]
cell viability (Saos-2): 104
cell viability (U2OS): 105

Cc1nccn1CC1CCc2c(c3ccccc3n2C)C1=O (configuration not stated) [Ondansetron]
cell viability (Saos-2): 63.5
cell viability (U2OS): 101

Cc1nnc(C(=O)NC(C)(C)c2nc(C(=O)NCc3ccc(F)cc3)c(O)c(=O)n2C)o1 [Raltegravir potassium]
cell viability (Saos-2): 107
cell viability (U2OS): 97.2

c1ccc2c(c1)CCCC2C1=NCCN1 (configuration not stated) [Tetrahydrozoline·HCl]
cell viability (Saos-2): 107
cell viability (U2OS): 102

CC(C)(C(=O)c1cccnc1)c1cccnc1 [Metyrapone]
cell viability (Saos-2): 100
cell viability (U2OS): 102

CCC1(c2ccccc2)C(=O)NCNC1=O [Primidone]
cell viability (Saos-2): 97.9
cell viability (U2OS): 79.6

COC(=O)Nc1nc2cc(C(=O)c3ccccc3)ccc2[nH]1 [Mebendazole]
cell viability (Saos-2): 31.9
cell viability (U2OS): 46.6

CC[C@@]1(O)C(=O)OCc2c1cc1n(c2=O)Cc2cc3c(CN(C)C)c(O)ccc3nc2-1 [Topotecan . hydrochloride]
cell viability (Saos-2): 31.7
cell viability (U2OS): 47.4

CC1=C(/C=C/C(C)=C/C=C/C(C)=C/C(=O)O)C(C)(C)CCC1 [Tretinoin]
cell viability (Saos-2): 94.4
cell viability (U2OS): 87.2

OCCN1CCN(CCCN2c3ccccc3Sc3ccc(Cl)cc32)CC1 [Perphenazine]
cell viability (Saos-2): 94.9
cell viability (U2OS): 102

CC(C)(C)NC(=O)[C@@H]1CN(Cc2cccnc2)CCN1C[C@@H](O)C[C@@H](Cc1ccccc1)C(=O)N[C@H]1c2ccccc2C[C@H]1O [Indinavir]
cell viability (Saos-2): 111
cell viability (U2OS): 96.7

Cc1ccccc1C(=O)Nc1ccc(C(=O)N2CCCC(O)c3cc(Cl)ccc32)c(C)c1 (configuration not stated) [Tolvaptan]
cell viability (Saos-2): 110
cell viability (U2OS): 92.2

NC[C@@H]1O[C@H](O[C@H]2[C@@H](O)[C@H](O[C@@H]3[C@@H](O)[C@H](N)C[C@H](N)[C@H]3O[C@H]3O[C@H](CO)[C@@H](O)[C@H](O)[C@H]3N)O[C@@H]2CO)[C@H](N)[C@@H](O)[C@@H]1O [Paromomycin Sulfate]
cell viability (Saos-2): 112
cell viability (U2OS): 115

O=c1[nH]cc(F)c(=O)[nH]1 [5-Fluorouracil]
cell viability (Saos-2): 56.2
cell viability (U2OS): 77.6

COC1=CC(=O)C[C@@H](C)[C@]12Oc1c(Cl)c(OC)cc(OC)c1C2=O [Griseofulvin]
cell viability (Saos-2): 106
cell viability (U2OS): 89.6

C[C@H]1c2cccc(O)c2C(=O)C2=C(O)[C@]3(O)C(=O)C(C(N)=O)=C(O)[C@@H](N(C)C)[C@@H]3[C@@H](O)[C@@H]21 [Doxycycline Monohydrate]
cell viability (Saos-2): 70.8
cell viability (U2OS): 104

CN1[C@@H]2CC[C@H]1C[C@@H](OC(c1ccccc1)c1ccccc1)C2 [Benztropine . mesylate]
cell viability (Saos-2): 114
cell viability (U2OS): 109

Clc1ccc(CCC(Cn2ccnc2)Sc2c(Cl)cccc2Cl)cc1 (configuration not stated) [Butoconazole Nitrate]
cell viability (Saos-2): 71.7
cell viability (U2OS): 132

CCOC(=O)C1=C(C)NC(C)=C(C(=O)OC)C1c1cccc(Cl)c1Cl (configuration not stated) [Felodipine]
cell viability (Saos-2): 65.9
cell viability (U2OS): 108

COc1ccccc1OCC(O)CN1CCN(CC(=O)Nc2c(C)cccc2C)CC1 (configuration not stated) [Ranolazine·2HCl]
cell viability (Saos-2): 66.8
cell viability (U2OS): 107

Cc1cnc(NC(=O)C2=C(O)c3ccccc3S(=O)(=O)N2C)s1 [Meloxicam]
cell viability (Saos-2): 54.6
cell viability (U2OS): 107

CNCCC(Oc1ccc(C(F)(F)F)cc1)c1ccccc1 (configuration not stated) [Fluoxetine·HCl]
cell viability (Saos-2): 58.4
cell viability (U2OS): 89.5

CC(=O)NO [Acetohydroxamic Acid]
cell viability (Saos-2): 95.6
cell viability (U2OS): 84.5

Nc1nnc(-c2cccc(Cl)c2Cl)c(N)n1 [Lamotrigine]
cell viability (Saos-2): 55.9
cell viability (U2OS): 102

CC(CN1c2ccccc2Sc2ccccc21)N(C)C (configuration not stated) [Promethazine·HCl]
cell viability (Saos-2): 66.3
cell viability (U2OS): 97.2

CC#C[C@]1(O)CC[C@H]2[C@@H]3CCC4=CC(=O)CCC4=C3[C@@H](c3ccc(N(C)C)cc3)C[C@@]21C [Mifepristone]
cell viability (Saos-2): 64.8
cell viability (U2OS): 102

O=C(O)CCNC(=O)c1ccc(/N=N/c2ccc(O)c(C(=O)O)c2)cc1 [Balsalazide]
cell viability (Saos-2): 122
cell viability (U2OS): 114

CCCCN1C[C@H](O)[C@@H](O)[C@H](O)[C@H]1CO [Miglustat (N-Butyldeoxynojirimycin·HCl)]
cell viability (Saos-2): 69.6
cell viability (U2OS): 97.2

C#C[C@]1(O)CC[C@H]2[C@@H]3CCC4=Cc5oncc5C[C@]4(C)[C@H]3CC[C@@]21C [Danazol]
cell viability (Saos-2): 68.1
cell viability (U2OS): 92.8

NCCCC[C@H](N[C@@H](CCc1ccccc1)C(=O)O)C(=O)N1CCC[C@H]1C(=O)O [Lisinopril Dihydrate]
cell viability (Saos-2): 72.6
cell viability (U2OS): 98.3

COc1cc2nc(N3CCN(C(=O)C4COc5ccccc5O4)CC3)nc(N)c2cc1OC (configuration not stated) [Doxazosin Mesylate]
cell viability (Saos-2): 65.6
cell viability (U2OS): 103

Cc1ccc(/C(=C\CN2CCCC2)c2cccc(/C=C/C(=O)O)n2)cc1 [Acrivastine]
cell viability (Saos-2): 92.5
cell viability (U2OS): 87.6

NCc1ccc(S(N)(=O)=O)cc1 [Mafenide]
cell viability (Saos-2): 105
cell viability (U2OS): 93.6

CN(C)/N=N/c1[nH]cnc1C(N)=O [Dacarbazine]
cell viability (Saos-2): 69.5
cell viability (U2OS): 77.4

CN1C(=O)CC(C)(c2ccccc2)C1=O (configuration not stated) [Methsuximide]
cell viability (Saos-2): 100
cell viability (U2OS): 102

CC(C)C(=O)Nc1ccc([N+](=O)[O-])c(C(F)(F)F)c1 [Flutamide]
cell viability (Saos-2): 63.4
cell viability (U2OS): 115

O=C(O)c1cccnc1 [Niacin]
cell viability (Saos-2): 110
cell viability (U2OS): 125

COc1ccc2c3c1O[C@H]1C[C@@H](O)C=C[C@@]31CCN(C)C2 [Galanthamine . hydrobromide]
cell viability (Saos-2): 58.4
cell viability (U2OS): 115

COC(=O)C1=C(C)NC(C)=C(C(=O)OC(C)C)C1c1cccc2nonc12 (configuration not stated) [Isradipine]
cell viability (Saos-2): 120
cell viability (U2OS): 120

NC(=O)OCC(COC(N)=O)c1ccccc1 [Felbamate]
cell viability (Saos-2): 61.7
cell viability (U2OS): 90.2

OCCN1CCN(CCCN2c3ccccc3Sc3ccc(C(F)(F)F)cc32)CC1 [Fluphenazine dihydrochloride]
cell viability (Saos-2): 52.6
cell viability (U2OS): 95.3

CN(Cc1cnc2nc(N)nc(N)c2n1)c1ccc(C(=O)N[C@@H](CCC(=O)O)C(=O)O)cc1 [Methotrexate]
cell viability (Saos-2): 66.9
cell viability (U2OS): 79.9

C=C1/C(=C\C=C2/CCC[C@]3(C)[C@@H]([C@H](C)CCCC(C)(C)O)CC[C@@H]23)C[C@@H](O)C[C@@H]1O [1α,25-Dihydroxyvitamin D3]
cell viability (Saos-2): 68.7
cell viability (U2OS): 117

CC1(C)O[C@@H]2C[C@H]3[C@@H]4C[C@H](F)C5=CC(=O)C=C[C@]5(C)[C@H]4[C@@H](O)C[C@]3(C)[C@]2(C(=O)CO)O1 [Flunisolide]
cell viability (Saos-2): 98.8
cell viability (U2OS): 109

C[C@]12C=CC(=O)C=C1CC[C@@H]1[C@@H]2C(=O)C[C@@]2(C)[C@H]1CC[C@]2(O)C(=O)CO [Prednisone]
cell viability (Saos-2): 66.9
cell viability (U2OS): 107
